According to PubChem BioAssay AID493014 (National Center for Advancing Translational Sciences (NCATS), 2011):
The other results are listed elsewhere or left out. The main result of the screen is listed elsewhere. These columns were measured beside it and carry no call. The list favours compounds with an active or inconclusive main result. Potencies come from curve fits of mixed quality, noted in brackets.

Experiment: qHTS Assay to Find Inhibitors of Chronic Active B-Cell Receptor Signaling
Conditions: ABC-DLBCL IkBa-CBG/CBR reporter, luminescence ratio (green luciferase fused to IkBa over red control in TMD8 lymphoma cells), 4 h
Outline: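 Cell line TMD8 (human ABC DLBCL), stably expressing tet-inducible CBG68-IkBa fusion and CBR; IMDM/0.5% FBS; cpd up to 46 uM; dox induction, 4 h, 37C/5% CO2; dual luminescence; green/red ratio; MG132 control.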

[1] = measured here: CBR red luminescence, cell number

| Structure (SMILES) | AC50 [1] | AC50 (measured here: IkBa-CBG green luminescence) |
| --- | --- | --- |
| CCN(CC)C(=O)CSc1nnc(-c2cccc(OC)c2)o1 | 0.164 µM [rising, full curve, poor fit] |  |
| CCOC(=O)c1cnn(-c2ccccc2)c1-n1cccc1C(=O)C(=O)Nc1ccc(F)cc1 | 2.82 µM [falling, partial curve, poor fit] |  |
| CCOC(=O)c1ccc(NC(=O)C2=C(C)Nc3nc(CCCO)nn3C2c2ccc(OC)cc2)cc1 (configuration not stated) | 1.58 µM [rising, partial curve, poor fit] |  |
| CC12CC3CC(C)(C1)CC(C(=O)NCc1ccco1)(C3)C2 | 0.251 µM [falling, partial curve, poor fit] |  |
| Cc1sc(NC(=O)CN(Cc2ccc(F)cc2)C(=O)C(C)C)c(C(N)=O)c1C | 0.0891 µM [falling, full curve, poor fit] |  |
| O=C(NNC(=O)c1ccccc1[N+](=O)[O-])Nc1ccc(Cl)cc1 | 35.5 µM [falling, single point] |  |
| O=C(CSc1ncccn1)NCCC1=CCCCC1 | 4.61 µM [rising, full curve] |  |
| Cn1ccsc1=NC(=O)c1cccc(OC(F)F)c1 | 0.708 µM [rising, full curve, poor fit] |  |
| COc1ccccc1NC(=S)NC(=O)c1ccc(Cn2cc(Br)cn2)cc1 | 0.366 µM [falling, partial curve, poor fit] |  |
| COc1ccc2oc(=O)c(C(=O)n3ccc(C)n3)cc2c1 | 6.51 µM [falling, single point] |  |
| Cn1ccs/c1=N\C(=O)Nc1cccc(Cl)c1 | 35.5 µM [falling, single point] |  |
| COc1ccccc1OCCC(=O)OCC(=O)Nc1ccc(Br)cc1 | 1.03 µM [falling, partial curve, poor fit] |  |
| C/C(=N\NC(=S)NCc1ccccc1)c1ccc(Cl)cc1 | 29.1 µM [rising, single point] | 20.6 µM [falling, single point] |
| CC(=O)N1CCC(=NNc2ccc(S(=O)(=O)N3CCOCC3)cc2[N+](=O)[O-])CC1 | 20.6 µM [falling, partial curve] |  |
| Cc1ccc(S(=O)(=O)c2c(N)n(NC(=O)c3ccco3)c3nc4ccccc4nc23)cc1 | 20 µM [falling, partial curve] |  |
| Cc1ccc(C(=O)N2c3ccc(F)cc3CCC2C)o1 (configuration not stated) | 2.31 µM [rising, partial curve, poor fit] |  |
| COC(=O)c1sccc1NC(=O)COc1cccc(C)c1 | 1.12 µM [falling, full curve] |  |
| O=C(CC1NCCNC1=O)Nc1cccc([N+](=O)[O-])c1 (configuration not stated) | 17.8 µM [rising, single point] |  |
| COC(=O)c1ccccc1NC(=O)COC(=O)[C@H](C)NC(N)=O | 22.4 µM [falling, single point] |  |
| CC1(C)CC2(CC(c3cccs3)c3cc(Cl)c(O)cc3O2)NC(=S)N1 (configuration not stated) | 20 µM [falling, partial curve, poor fit] |  |
| COc1ccc(-n2nnnc2SCC(=O)Nc2cccc(NC(C)=O)c2)cc1OC | 4.47 µM [rising, full curve, poor fit] |  |

Given as labelled records: entries from further up
COC(=O)c1sccc1NC(=O)COc1cccc(C)c1
  AC50 [1]: 1.12 µM [falling, full curve]
O=C(CC1NCCNC1=O)Nc1cccc([N+](=O)[O-])c1 (configuration not stated)
  AC50 [1]: 17.8 µM [rising, single point]

The results go on:

| Structure (SMILES) | AC50 [1] | AC50 (measured here: IkBa-CBG green luminescence) |
| --- | --- | --- |
| O=c1cnn(-c2ccc(Cl)cc2Cl)c(-c2ccccc2)c1 | 5.8 µM [rising, full curve] |  |
| COc1ccccc1NC(=O)Cn1cc(C(=O)c2ccco2)c2ccccc21 | 15.8 µM [falling, single point] |  |
| Cn1cc(S(=O)(=O)N2CCN(c3ccccc3F)CC2)c(=O)n(C)c1=O | 29.1 µM [falling, single point] |  |
| CCOC(=O)C(NC(C)=O)(NC(C)C)C(F)(F)F (configuration not stated) | 31.6 µM [rising, single point] |  |
| O=c1c2ccccc2nc(/C=C/c2cccnc2)n1CCc1ccccc1 | 12.6 µM [falling, partial curve] |  |
| COc1ccccc1-c1noc(-c2cccs2)n1 | 1 µM [rising, partial curve] |  |
| CCn1cc(C(=O)Nc2ccc(C(=O)N3CCCC3)cc2)c(=O)c2ccc(C)nc21 | 8.91 µM [rising, partial curve, poor fit] |  |
| CCOc1ccccc1Nc1nc(N)nc(CN2CCCCC2C)n1 (configuration not stated) | 0.794 µM [rising, full curve, poor fit] |  |
| O=C(CCSCCc1ccccn1)Nc1nccs1 | 11.2 µM [falling, partial curve] |  |
| C=CC[C@@H](CC(=O)N[C@@H](CO)Cc1ccccc1)C(=O)N[C@H](COC(=O)[C@@H](CC=C)Cc1ccc(F)cc1)C(C)(C)C | 23.1 µM [falling, single point] |  |
| COc1ccc(CN(CC2CCC(C(=O)O)CC2)C(=S)Nc2ccccc2OC)cc1 (configuration not stated) | 3.55 µM [falling, partial curve, poor fit] |  |
| COC(=O)c1ccccc1NC(=S)NC(=O)CC(C)C | 7.94 µM [falling, partial curve, poor fit] |  |
| Oc1ccc(-c2nccc(-c3ccc(Cl)cc3Cl)n2)cc1 | 11.2 µM [rising, partial curve] |  |
| Cc1cc(C)nc(N/N=C/c2ccc3c(c2)OCCO3)n1 | 35.5 µM [falling, single point] |  |
| CCC(=O)Nc1ccc(C(=O)CN2C(=O)NC3(CCOc4ccccc43)C2=O)cc1 (configuration not stated) | 2.31 µM [rising, partial curve, poor fit] |  |
| N=C1C(c2nc3ccccc3s2)=C(O)CN1NC(=O)c1ccc([N+](=O)[O-])cc1 | 12.6 µM [falling, single point] |  |
| COc1cc(/C=N\NC(=O)c2sc(N)nc2C)cc(OC)c1OC | 1.26 µM [falling, full curve] |  |
| CCOC(=O)c1ccc(-n2ccnc2)c(NC(=O)c2cccc(Br)c2)c1 | 25.9 µM [falling, partial curve] |  |
| Cc1nnsc1SCCNC(=O)Nc1ccc(Cl)cc1 | 0.355 µM [rising, partial curve, poor fit] |  |
| O=[N+]([O-])c1ccc(-c2cn3c(n2)CCC3)cc1 | 8.91 µM [rising, partial curve, poor fit] |  |

Taken from the results shown (two entries):

| Structure (SMILES) | AC50 [1] | AC50 (measured here: IkBa-CBG green luminescence) |
| --- | --- | --- |
| Oc1ccc(-c2nccc(-c3ccc(Cl)cc3Cl)n2)cc1 | 11.2 µM [rising, partial curve] |  |
| Cc1cc(C)nc(N/N=C/c2ccc3c(c2)OCCO3)n1 | 35.5 µM [falling, single point] |  |
